{"sequences": {"note": "Sequences of proteins named here, by UniProt entry; tags and fusion partners are left off. Residues count along the entry.", "UniProt P02768, residues 25-609": "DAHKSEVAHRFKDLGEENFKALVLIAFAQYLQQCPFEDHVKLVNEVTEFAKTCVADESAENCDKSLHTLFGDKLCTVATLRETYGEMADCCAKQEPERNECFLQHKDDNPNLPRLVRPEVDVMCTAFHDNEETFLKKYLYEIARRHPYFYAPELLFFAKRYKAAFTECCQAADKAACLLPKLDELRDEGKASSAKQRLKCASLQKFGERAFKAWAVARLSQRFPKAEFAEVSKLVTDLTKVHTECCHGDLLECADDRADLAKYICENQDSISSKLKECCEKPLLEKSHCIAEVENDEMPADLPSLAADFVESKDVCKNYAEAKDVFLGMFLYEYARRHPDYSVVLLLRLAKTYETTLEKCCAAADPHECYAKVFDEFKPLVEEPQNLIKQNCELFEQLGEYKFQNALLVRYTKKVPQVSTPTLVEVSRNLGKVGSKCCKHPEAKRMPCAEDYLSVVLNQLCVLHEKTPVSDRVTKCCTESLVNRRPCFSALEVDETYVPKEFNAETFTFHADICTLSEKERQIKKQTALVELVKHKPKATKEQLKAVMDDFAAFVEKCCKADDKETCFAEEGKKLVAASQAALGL", "UniProt P02769, residues 25-607": "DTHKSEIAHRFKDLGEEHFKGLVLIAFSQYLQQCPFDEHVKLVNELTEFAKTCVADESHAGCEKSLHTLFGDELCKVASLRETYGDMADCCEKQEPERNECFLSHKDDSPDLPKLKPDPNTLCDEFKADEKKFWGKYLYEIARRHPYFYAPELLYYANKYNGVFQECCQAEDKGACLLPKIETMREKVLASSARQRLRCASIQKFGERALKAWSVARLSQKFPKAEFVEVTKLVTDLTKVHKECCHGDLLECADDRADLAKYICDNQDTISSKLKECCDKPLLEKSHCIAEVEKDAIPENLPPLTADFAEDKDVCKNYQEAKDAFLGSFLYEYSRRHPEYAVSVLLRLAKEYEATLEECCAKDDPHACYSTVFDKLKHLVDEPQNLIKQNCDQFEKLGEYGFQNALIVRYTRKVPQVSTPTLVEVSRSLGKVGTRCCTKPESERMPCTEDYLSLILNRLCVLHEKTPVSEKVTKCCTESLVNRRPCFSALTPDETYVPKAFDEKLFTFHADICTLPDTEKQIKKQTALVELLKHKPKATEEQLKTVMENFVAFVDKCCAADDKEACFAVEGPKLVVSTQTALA"}, "source": "paper PMC3201017", "about": "“Modification of the loops in the ligand-binding site turns avidin into a steroid-binding protein” (BMC Biotechnology, 2011)", "molecules": {"B1": {"name": "steroid-binding avidin mutant sbAvd-1 (designed binder)", "chain": "ARKCSLTGKWTNRMNHNMTIGAVNSRGEFTGTYITAVTATSNEIKESPLHGTQNTINKRTQPTFGFTVNWKFSESTTVFTGQCFIDRNGKEVLKTMWLLRSSVNDIGDDWKATRVGINIFTRLRTQKE", "notes": "chicken avidin (Avd) with the loop between beta-strands 1 and 2 (N12, D13, L14, G15, S16) changed to N12, R13, M14, N15, H16; selected by phage display from the Avd L1,2 library; source: E. coli BL21-AI, pET101/D, secreted with the OmpA signal of Bordetella avium, purified (Ni-NTA)"}, "B2": {"name": "steroid-binding avidin mutant sbAvd-2 (designed binder)", "chain": "ARKCSLTGKWTNRMNHNMTIGAVNSRGEFTGTYIATVNATSNEIKESPLHGTQNTINKRTQPTFGFTVNWKFSESTTVFTGQCFIDRNGKEVLKTMWLLRSSVNDIGDDWKATRVGINIFTRLRTQKE", "notes": "selected by phage display from the sbAvd-1 L3,4 library; source: E. coli BL21-AI, pET101/D, secreted with the OmpA signal of Bordetella avium, purified (Ni-NTA)"}}, "key": {"[1]": {"target": "human serum albumin (human) (UniProt P02768)", "assay": "ELISA; microplate assay; MaxiSorp wells coated with 500 ng carrier protein (HSA or BSA) in PBS, blocked with 0.5% BSA-PBS; Avd proteins 0.9 μg/ml in 20 mM sodium phosphate pH 7.4, 1 M NaCl, 20 mM imidazole, 1 h; bound Avd detected by polyclonal rabbit anti-avidin IgG; both purified"}, "[2]": {"target": "bovine serum albumin (bovine) (UniProt P02769)", "assay": "ELISA; microplate assay; MaxiSorp wells coated with 500 ng carrier protein (HSA or BSA) in PBS, blocked with 0.5% BSA-PBS; Avd proteins 0.9 μg/ml in 20 mM sodium phosphate pH 7.4, 1 M NaCl, 20 mM imidazole, 1 h; bound Avd detected by polyclonal rabbit anti-avidin IgG; both purified"}}, "note": "These are yes or no findings as the source states them, for the method shown.", "data": [{"molecule": "steroid-binding avidin mutant sbAvd-1 (from UniProt P02701 25-152) (designed binder)", "values": [{"measurement": "binding", "setting": "[1]", "value": "no binding (tested: 0.9 μg/ml)"}]}, {"molecule": "steroid-binding avidin mutant sbAvd-2 (from UniProt P02701 25-152) (designed binder)", "values": [{"measurement": "binding", "setting": "[1]", "value": "no binding (tested: 0.9 μg/ml)"}]}, {"molecule": "B1", "values": [{"measurement": "binding", "setting": "[2]", "value": "no binding (tested: 0.9 μg/ml)"}]}, {"molecule": "B2", "values": [{"measurement": "binding", "setting": "[2]", "value": "no binding (tested: 0.9 μg/ml)"}]}]}
